Measured values reported in publication PMC10282328.
Numbering of substitutions follows the chain as printed. Results are given in words; binding and its absence hold for the method and conditions named. Binding seen in cells or lysates may run through a third protein. Some binding calls cover weakened binding; strength is not graded here. Sequences can lack the tags named with a protein.

By UniProt entry, the sequences of proteins in these tests, tags left out.
UniProt P29351: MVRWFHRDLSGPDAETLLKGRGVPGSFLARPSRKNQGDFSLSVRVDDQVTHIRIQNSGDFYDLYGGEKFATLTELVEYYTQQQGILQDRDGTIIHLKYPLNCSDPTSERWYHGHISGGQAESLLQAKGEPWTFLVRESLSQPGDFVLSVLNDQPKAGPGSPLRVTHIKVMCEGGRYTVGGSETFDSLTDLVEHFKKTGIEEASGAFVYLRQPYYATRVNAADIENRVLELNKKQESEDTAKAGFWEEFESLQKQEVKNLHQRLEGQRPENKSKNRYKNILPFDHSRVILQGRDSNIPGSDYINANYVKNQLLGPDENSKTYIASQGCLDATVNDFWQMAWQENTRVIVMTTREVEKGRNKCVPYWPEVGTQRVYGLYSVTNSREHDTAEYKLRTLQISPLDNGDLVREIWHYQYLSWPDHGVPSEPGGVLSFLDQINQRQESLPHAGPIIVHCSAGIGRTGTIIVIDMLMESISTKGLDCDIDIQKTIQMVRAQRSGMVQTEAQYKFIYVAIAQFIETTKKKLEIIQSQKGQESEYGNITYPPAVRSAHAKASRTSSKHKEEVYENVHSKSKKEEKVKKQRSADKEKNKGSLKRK

How the values were obtained:
[1] = biological target: T1, HA-tagged ITIM mutant Clec12a (Y7F) (mouse) (mouse) (UniProt Q504P2); test: co-IP; DC2.4 cell lysate (50 mM Hepes pH 7.4, 150 mM NaCl, 1% NP-40, 1 mM EDTA); anti-HA antibody on protein A/G agarose, 3 h at 4°C; washed four times with lysis buffer with 300 mM NaCl added; Western blot for SHP-1/2
T1 sequence: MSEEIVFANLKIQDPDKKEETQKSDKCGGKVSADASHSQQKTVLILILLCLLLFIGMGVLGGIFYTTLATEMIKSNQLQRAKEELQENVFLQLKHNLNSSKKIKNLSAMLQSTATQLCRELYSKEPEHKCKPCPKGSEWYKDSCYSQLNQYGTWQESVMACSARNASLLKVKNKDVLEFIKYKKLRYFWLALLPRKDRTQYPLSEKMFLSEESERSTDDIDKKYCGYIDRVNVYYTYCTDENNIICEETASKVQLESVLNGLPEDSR

[2] = biological target: T2, HA-tagged WT Clec12a (mouse) (mouse) (UniProt Q504P2); test: as above
T2 sequence: T1 sequence with F7Y

binding [1]: no binding
binding [2]: binds
Substance: SH2 domain-containing phosphatase 1 (SHP-1), mouse (from UniProt P29351 1-595) (enzyme)
